The other results are listed elsewhere or left out.
Columns and labels:
Test in all cases: log2 fold change, soluble protein after heating vs DMSO (PISA); higher = thermal stabilisation; K562 lysate, 10 uM; active = over 0.2 and 3.5 SD of the protein, either way, in both replicates (recomputed)
[1] = compound: CS(=O)(=O)CCNCc1ccc(-c2ccc3ncnc(Nc4ccc(OCc5cccc(F)c5)c(Cl)c4)c3c2)o1 [lapatinib]
Procedure, shortened: (§1)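 K562 pellets were dounce-homogenised in PBS pH 7.4 containing 1 mM MgCl2, and the crude extract, at 1 mg/mL protein, was exposed to 10 μM compound for 30 min. Aliquots were heated for 3 min across 48°C-58°C, pooled, brought to 0.5% NP-40 at 4°C and spun at 21,000xg for 90 min, with the supernatant taken as soluble protein. TMTpro 16plex LC-MS/MS with equalised channel sums quantified that protein. Values are log-two fold changes in thermal stability relative to solvent controls, taken from duplicates.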

The chains behind the UniProt entries cited, without tags or fusion partners. Where a name states a change or a piece, a line headed by the entry shows the natural chain unless it says otherwise.
UniProt Q8NBX0: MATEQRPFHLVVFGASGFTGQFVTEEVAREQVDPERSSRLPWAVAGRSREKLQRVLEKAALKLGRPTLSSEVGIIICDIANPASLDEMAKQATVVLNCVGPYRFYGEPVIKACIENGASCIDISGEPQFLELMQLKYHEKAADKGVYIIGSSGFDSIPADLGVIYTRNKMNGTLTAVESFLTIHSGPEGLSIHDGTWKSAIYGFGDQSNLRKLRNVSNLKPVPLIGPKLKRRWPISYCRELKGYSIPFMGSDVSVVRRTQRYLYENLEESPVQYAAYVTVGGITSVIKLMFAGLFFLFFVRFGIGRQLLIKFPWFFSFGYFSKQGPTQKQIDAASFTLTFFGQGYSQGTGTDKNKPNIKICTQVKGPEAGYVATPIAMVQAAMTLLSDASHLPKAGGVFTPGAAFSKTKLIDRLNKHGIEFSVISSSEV
UniProt O75326: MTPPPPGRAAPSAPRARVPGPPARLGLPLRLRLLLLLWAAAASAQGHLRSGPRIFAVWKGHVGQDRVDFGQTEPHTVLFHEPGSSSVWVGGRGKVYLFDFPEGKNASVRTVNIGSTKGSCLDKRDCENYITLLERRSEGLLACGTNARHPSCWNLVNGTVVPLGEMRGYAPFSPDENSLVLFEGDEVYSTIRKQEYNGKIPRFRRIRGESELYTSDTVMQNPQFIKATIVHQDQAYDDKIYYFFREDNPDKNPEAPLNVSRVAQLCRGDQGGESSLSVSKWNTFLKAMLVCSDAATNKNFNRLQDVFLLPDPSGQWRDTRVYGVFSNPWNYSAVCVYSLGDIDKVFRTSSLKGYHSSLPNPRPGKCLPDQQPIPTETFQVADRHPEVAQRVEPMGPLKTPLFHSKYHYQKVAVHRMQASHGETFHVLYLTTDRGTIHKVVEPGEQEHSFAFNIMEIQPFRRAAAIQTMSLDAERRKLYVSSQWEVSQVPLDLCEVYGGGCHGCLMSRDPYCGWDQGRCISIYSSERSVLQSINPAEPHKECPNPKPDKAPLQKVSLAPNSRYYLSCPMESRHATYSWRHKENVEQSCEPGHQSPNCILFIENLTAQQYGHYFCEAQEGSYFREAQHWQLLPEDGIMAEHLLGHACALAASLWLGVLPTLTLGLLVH
UniProt Q96T21: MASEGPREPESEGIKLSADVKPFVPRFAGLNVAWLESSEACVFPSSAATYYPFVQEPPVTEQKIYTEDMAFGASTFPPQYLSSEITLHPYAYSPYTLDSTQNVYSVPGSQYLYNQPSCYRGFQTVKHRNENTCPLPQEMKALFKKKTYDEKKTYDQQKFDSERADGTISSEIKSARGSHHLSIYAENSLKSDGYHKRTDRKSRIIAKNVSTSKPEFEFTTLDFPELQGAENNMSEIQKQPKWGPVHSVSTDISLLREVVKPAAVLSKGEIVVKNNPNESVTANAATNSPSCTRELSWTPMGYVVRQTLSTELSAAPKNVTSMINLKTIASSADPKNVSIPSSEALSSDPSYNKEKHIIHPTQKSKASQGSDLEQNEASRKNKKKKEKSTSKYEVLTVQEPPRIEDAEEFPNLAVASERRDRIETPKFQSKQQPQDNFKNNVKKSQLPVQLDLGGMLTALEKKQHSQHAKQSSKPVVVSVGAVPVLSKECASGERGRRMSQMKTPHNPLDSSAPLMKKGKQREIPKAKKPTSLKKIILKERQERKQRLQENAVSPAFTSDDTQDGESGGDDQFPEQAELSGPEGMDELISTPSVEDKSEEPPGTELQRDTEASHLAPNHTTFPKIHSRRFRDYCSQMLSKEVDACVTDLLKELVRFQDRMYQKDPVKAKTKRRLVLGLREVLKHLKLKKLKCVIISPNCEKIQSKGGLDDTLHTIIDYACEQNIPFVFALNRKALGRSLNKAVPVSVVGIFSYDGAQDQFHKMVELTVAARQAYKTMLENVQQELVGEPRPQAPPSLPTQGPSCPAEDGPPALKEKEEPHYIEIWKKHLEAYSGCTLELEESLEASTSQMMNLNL
UniProt Q92503: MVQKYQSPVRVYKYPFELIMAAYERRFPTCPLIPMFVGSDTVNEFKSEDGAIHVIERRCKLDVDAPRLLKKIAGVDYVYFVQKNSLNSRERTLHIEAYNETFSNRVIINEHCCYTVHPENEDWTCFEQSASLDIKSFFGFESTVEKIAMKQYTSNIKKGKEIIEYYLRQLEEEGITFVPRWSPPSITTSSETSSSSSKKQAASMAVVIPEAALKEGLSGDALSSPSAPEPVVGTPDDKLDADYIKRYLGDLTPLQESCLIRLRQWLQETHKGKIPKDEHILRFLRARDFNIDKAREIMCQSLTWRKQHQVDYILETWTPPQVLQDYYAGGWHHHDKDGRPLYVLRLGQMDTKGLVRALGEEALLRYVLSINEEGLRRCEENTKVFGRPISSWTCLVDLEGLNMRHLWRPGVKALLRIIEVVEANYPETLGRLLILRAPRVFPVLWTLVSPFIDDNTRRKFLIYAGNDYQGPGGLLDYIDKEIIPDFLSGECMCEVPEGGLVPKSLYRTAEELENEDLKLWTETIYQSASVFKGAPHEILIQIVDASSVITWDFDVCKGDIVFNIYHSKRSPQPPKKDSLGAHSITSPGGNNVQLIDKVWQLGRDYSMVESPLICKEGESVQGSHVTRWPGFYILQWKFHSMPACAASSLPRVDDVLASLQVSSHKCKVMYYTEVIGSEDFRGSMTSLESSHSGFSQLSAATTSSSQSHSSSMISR
UniProt Q9H7N4: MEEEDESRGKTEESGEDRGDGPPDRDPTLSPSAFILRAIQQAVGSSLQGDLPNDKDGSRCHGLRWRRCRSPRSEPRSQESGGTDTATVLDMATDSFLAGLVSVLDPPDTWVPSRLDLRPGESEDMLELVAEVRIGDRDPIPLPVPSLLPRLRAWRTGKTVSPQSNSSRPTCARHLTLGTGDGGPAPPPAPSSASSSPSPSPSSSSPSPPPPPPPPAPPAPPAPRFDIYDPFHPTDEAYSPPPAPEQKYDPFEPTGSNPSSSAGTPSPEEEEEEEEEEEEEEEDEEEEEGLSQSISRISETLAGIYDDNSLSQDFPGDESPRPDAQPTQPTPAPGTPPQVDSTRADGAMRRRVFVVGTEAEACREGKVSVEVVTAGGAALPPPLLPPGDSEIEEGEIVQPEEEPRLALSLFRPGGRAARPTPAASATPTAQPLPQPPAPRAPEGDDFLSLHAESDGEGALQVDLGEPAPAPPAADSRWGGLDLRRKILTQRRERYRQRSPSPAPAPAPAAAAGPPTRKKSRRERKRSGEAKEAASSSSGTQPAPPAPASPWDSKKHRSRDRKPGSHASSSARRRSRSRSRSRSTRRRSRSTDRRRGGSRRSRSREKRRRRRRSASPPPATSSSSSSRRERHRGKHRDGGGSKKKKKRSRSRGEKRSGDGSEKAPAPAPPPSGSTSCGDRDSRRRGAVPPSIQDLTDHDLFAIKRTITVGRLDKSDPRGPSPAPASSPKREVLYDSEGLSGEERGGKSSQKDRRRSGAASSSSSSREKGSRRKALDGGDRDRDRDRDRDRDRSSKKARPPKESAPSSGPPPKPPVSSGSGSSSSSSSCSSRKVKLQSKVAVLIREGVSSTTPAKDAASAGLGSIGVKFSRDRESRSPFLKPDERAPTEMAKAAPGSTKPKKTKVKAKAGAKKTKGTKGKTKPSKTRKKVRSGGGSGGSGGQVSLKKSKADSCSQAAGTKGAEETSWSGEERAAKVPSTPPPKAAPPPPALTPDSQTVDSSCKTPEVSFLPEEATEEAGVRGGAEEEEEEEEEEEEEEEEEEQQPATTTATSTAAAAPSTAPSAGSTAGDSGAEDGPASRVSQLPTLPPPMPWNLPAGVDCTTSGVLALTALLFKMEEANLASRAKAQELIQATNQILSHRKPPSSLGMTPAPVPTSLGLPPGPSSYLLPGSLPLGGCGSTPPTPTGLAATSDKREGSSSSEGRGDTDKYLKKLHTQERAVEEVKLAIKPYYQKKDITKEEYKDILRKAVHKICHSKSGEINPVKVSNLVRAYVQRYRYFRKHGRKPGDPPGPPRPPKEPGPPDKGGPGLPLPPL
UniProt Q9UGP8: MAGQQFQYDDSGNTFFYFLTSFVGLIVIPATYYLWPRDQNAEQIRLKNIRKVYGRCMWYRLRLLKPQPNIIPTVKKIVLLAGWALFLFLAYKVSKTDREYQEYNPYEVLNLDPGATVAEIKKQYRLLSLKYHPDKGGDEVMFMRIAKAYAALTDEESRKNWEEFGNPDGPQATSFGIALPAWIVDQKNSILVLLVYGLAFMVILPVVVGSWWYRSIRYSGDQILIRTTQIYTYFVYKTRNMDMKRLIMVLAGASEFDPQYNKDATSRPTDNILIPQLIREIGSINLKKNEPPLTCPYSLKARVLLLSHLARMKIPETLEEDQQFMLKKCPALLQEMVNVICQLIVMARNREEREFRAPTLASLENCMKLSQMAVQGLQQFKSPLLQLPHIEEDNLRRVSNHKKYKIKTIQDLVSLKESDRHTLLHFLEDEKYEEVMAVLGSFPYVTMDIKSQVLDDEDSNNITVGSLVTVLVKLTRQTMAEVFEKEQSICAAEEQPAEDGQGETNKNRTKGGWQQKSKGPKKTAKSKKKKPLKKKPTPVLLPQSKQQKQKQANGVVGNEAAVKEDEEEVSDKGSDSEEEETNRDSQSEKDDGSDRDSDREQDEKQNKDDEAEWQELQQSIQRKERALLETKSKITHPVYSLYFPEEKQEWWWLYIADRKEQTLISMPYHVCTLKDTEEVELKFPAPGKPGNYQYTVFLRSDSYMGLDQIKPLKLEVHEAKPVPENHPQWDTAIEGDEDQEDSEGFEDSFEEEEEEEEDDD
UniProt P21912: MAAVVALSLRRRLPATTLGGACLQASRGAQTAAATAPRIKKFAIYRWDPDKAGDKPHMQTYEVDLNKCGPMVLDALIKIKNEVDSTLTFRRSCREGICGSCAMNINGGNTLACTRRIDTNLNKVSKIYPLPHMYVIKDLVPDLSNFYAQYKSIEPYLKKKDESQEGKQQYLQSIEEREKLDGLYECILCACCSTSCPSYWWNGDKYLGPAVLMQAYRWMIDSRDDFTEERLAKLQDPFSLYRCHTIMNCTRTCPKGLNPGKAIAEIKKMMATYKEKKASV
UniProt O94885: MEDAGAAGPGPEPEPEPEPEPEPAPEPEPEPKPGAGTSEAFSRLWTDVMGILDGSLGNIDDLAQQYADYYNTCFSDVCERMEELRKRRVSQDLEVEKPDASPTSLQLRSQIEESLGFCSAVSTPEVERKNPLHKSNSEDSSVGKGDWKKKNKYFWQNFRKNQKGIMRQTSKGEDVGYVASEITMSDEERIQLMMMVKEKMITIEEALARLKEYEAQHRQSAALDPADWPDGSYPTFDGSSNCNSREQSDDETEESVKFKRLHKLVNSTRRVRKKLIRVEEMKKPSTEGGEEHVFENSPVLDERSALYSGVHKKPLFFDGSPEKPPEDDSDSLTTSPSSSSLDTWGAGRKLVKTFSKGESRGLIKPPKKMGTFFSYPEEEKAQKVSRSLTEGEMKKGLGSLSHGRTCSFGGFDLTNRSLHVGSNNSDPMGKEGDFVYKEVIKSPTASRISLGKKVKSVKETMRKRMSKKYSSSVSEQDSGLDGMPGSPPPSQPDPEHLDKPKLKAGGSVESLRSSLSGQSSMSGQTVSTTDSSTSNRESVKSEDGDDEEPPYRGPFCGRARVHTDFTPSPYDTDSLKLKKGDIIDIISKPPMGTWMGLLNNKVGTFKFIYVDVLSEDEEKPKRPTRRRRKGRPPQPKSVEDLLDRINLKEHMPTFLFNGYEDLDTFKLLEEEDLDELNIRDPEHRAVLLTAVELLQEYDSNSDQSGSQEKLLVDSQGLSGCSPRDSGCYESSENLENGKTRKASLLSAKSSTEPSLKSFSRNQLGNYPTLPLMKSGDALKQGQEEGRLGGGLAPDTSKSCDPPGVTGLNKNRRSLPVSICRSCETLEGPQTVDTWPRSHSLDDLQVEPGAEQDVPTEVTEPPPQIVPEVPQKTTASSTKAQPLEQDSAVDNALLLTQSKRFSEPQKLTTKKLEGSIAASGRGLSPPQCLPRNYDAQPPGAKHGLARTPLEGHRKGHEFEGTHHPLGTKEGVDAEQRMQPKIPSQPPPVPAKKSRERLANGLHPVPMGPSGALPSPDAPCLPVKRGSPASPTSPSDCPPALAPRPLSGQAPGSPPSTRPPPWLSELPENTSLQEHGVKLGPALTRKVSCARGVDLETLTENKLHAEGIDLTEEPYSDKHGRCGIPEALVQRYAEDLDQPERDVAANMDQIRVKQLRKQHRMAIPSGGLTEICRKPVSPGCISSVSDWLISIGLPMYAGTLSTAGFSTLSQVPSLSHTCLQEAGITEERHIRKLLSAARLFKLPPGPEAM
UniProt Q9UHR5: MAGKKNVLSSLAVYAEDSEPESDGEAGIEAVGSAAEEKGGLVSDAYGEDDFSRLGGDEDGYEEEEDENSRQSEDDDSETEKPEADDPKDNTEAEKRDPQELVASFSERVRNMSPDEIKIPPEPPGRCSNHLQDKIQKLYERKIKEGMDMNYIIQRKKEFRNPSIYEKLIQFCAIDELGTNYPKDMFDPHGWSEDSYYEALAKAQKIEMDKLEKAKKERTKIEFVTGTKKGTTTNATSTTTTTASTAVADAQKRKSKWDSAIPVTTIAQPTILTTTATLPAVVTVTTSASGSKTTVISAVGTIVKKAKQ

[2] = compound: CS(=O)(=O)N1CCN(Cc2cc3nc(-c4cccc5[nH]ncc45)nc(N4CCOCC4)c3s2)CC1 [pictilisib]
Procedure, shortened: as §1

[3] = compound: C[C@@H](Oc1cc(-c2cnn(C3CCNCC3)c2)cnc1N)c1c(Cl)ccc(F)c1Cl [crizotinib]
Procedure, shortened: as §1

[4] = compound: C[C@H](C1=CC=C(C=C1)C(=O)NC2=C3C=CNC3=NC=C2)N
Procedure, shortened: as §1

[5] = compound: C[C@H](Nc1ncnc2nc[nH]c12)c1cc2cccc(Cl)c2c(=O)n1-c1ccccc1 [duvelisib]
Procedure, shortened: as §1

[6] = compound: Cc1cc(Nc2cc(CN3CCOCC3)c3nc(C)c(Cc4ccc(Cl)cc4F)n3n2)n[nH]1 [gandotinib]
Procedure, shortened: as §1

[7] = compound: Cc1cc(Nc2cc(N3CCN(C)CC3)nc(Sc3ccc(NC(=O)C4CC4)cc3)n2)n[nH]1 [tozasertib]
Procedure, shortened: as §1

[8] = compound: Cc1ccc(-n2nc(C(C)(C)C)cc2NC(=O)Nc2ccc(OCCN3CCOCC3)c3ccccc23)cc1 [doramapimod]
Procedure, shortened: as §1

[9] = compound: Cc1ccc(NC(=O)c2ccc(CN3CC[C@H](N(C)C)C3)c(C(F)(F)F)c2)cc1Nc1nccc(-c2cncnc2)n1 [bafetinib]
Procedure, shortened: as §1

[10] = compound: Cc1cccc(CC(=O)N2CCc3c2ccc(-c2cn(C)c4ncnc(N)c24)c3F)n1
Procedure, shortened: as §1

Target | log2 fold change [1] | log2 fold change [2] | log2 fold change [3] | log2 fold change [4] | log2 fold change [5] | log2 fold change [6] | log2 fold change [7] | log2 fold change [8] | log2 fold change [9] | log2 fold change [10]
SCARB1 isoform 2 (UniProt Q8WTV0) | inactive: -0.01 | inactive: -0.001 | inactive: 0.01 | inactive: -0.055 | inactive: 0.011 | inactive: 0.065 | inactive: 0.012 | inactive: -0.009 | inactive: -0.024 | inactive: -0.011
SALL2 (UniProt Q9Y467) | inactive: 0.149 | inactive: -0.051 | inactive: 0.026 | inactive: -0.016 | inactive: -0.042 | inactive: -0.095 | inactive: -0.167 | inactive: -0.043 | inactive: -0.011 | inactive: 0.175
SEPTIN8 (UniProt Q92599) | inactive: -0.012 | inactive: 0 | inactive: 0.054 | inactive: 0.027 | inactive: -0.013 | inactive: -0.005 | inactive: 0.007 | inactive: 0.008 | inactive: 0.004 | inactive: -0.049
SCCPDH (UniProt Q8NBX0) | inactive: 0.108 | inactive: 0.006 | inactive: 0.394 | inactive: -0.179 | inactive: 0.195 | active: 0.869 | inactive: -0.052 | inactive: -0.102 | inactive: -0.015 | inactive: 0.034
SCD (UniProt O00767) | inactive: 0.059 | inactive: 0 | inactive: -0.08 | active: -0.443 | inactive: 0.067 | inactive: 0.155 | inactive: 0.065 | inactive: 0.077 | inactive: -0.053 | inactive: 0.273
SEL1L (UniProt Q9UBV2) | inactive: -0.042 | inactive: -0.052 | inactive: 0.014 | inactive: 0.031 | inactive: -0.046 | inactive: -0.036 | inactive: -0.027 | inactive: 0.006 | inactive: -0.048 | inactive: 0.029
SEC61A1 (UniProt P61619) | inactive: -0.005 | inactive: -0.007 | inactive: 0.034 | inactive: -0.064 | inactive: 0.011 | inactive: 0.06 | inactive: -0.043 | inactive: -0.092 | inactive: -0.035 | inactive: 0.062
SEMA7A (UniProt O75326) | inactive: 0.101 | inactive: -0.036 | inactive: 0.014 | inactive: 0.038 | inactive: 0.01 | inactive: -0.007 | inactive: 0.039 | inactive: -0.06 | inactive: 0.007 | inactive: -0.054
SECISBP2 (UniProt Q96T21) | inactive: -0.191 | inactive: -0.075 | inactive: -0.044 | inactive: -0.163 | inactive: 0.044 | inactive: 0.139 | inactive: -0.071 | inactive: -0.164 | inactive: -0.173 | inactive: -0.363
SCIN (UniProt Q9Y6U3) | inactive: 0.033 | inactive: -0.013 | inactive: -0.003 | inactive: 0.004 | inactive: -0.009 | inactive: -0.028 | inactive: 0.011 | inactive: -0.012 | inactive: -0.022 | inactive: 0.048
SEMA4C (UniProt Q9C0C4) | inactive: 0.001 | inactive: -0.113 | inactive: 0.08 | inactive: -0.003 | inactive: 0.012 | inactive: -0.02 | inactive: 0.016 | inactive: 0.047 | inactive: 0.02 | inactive: 0.022
SEC14L1 isoform 2 (UniProt Q92503) | inactive: -0.16 |  |  |  |  |  |  |  |  | 
SAP18 isoform 2 (UniProt O00422) | inactive: 0.013 | inactive: -0.027 | inactive: -0.037 | inactive: -0.034 | inactive: -0.02 | inactive: -0.003 | inactive: 0.003 | inactive: 0.079 | inactive: -0.002 | inactive: 0.031
SAAL1 (UniProt Q96ER3) | inactive: -0.002 | inactive: -0.007 | inactive: 0.007 | inactive: 0.027 | inactive: 0.036 | inactive: -0.093 | inactive: -0.006 | inactive: 0.021 | inactive: -0.013 | inactive: -0.022
SCRN2 (UniProt Q96FV2) | inactive: 0.037 | inactive: 0.013 | inactive: 0.011 | inactive: -0.062 | inactive: 0.008 | inactive: -0.121 | inactive: -0.038 | inactive: -0.059 | inactive: 0.024 | inactive: 0.084
SCAF1 (UniProt Q9H7N4) | inactive: -0.06 | inactive: -0.107 | inactive: -0.011 | inactive: 0.017 | inactive: -0.337 | inactive: -0.074 | inactive: -0.023 | inactive: 0.052 | inactive: -0.27 | inactive: -0.096
SEC63 (UniProt Q9UGP8) | inactive: -0.006 | inactive: -0.003 | inactive: 0.017 | inactive: -0.062 | inactive: 0.017 | inactive: 0.041 | inactive: -0.032 | inactive: -0.019 | inactive: 0.004 | inactive: 0.042
SCO1 (UniProt O75880) | inactive: 0.021 | inactive: -0.046 | inactive: -0.046 | inactive: -0.022 | inactive: -0.014 | inactive: 0.047 | inactive: 0.01 | inactive: 0.026 | inactive: 0.048 | inactive: 0.073
SDHB (UniProt P21912) | inactive: 0.039 | inactive: 0.003 | inactive: 0.007 | inactive: -0.043 | inactive: -0.016 | inactive: 0.015 | inactive: 0.024 | inactive: -0.004 | inactive: 0.069 | inactive: 0.014
SARG (UniProt Q9BW04) | inactive: -0.025 | inactive: -0.002 | inactive: 0.028 | inactive: 0.006 | inactive: -0.025 | inactive: 0.115 | inactive: -0.072 | inactive: 0.045 | inactive: -0.005 | inactive: -0.062
SASH1 (UniProt O94885) | inactive: -0.007 | inactive: 0.128 | inactive: 0.029 | inactive: 0.145 | inactive: 0.024 | inactive: -0.077 | inactive: 0.011 | inactive: -0.037 | inactive: -0.071 | inactive: 0.004
SEC31A (UniProt D6REX3) | inactive: 0.003 | inactive: -0.006 | inactive: -0.02 | inactive: -0.03 | inactive: 0.014 | inactive: -0.019 | inactive: 0.004 | inactive: 0.015 | inactive: 0.027 | inactive: 0.006
SEC24B isoform 3 (UniProt O95487) | inactive: -0.018 | inactive: -0.037 | inactive: -0.027 | inactive: 0.173 | inactive: -0.019 | inactive: -0.173 | inactive: -0.038 | inactive: -0.006 | inactive: -0.032 | inactive: -0.081
SCAF4 (UniProt O95104) | inactive: -0.015 | inactive: -0.084 | inactive: -0.046 | inactive: -0.049 | inactive: 0.043 | inactive: -0.051 | inactive: 0.011 | inactive: -0.003 | inactive: -0.024 | inactive: 0.066
SCAP (UniProt Q12770) | inactive: 0.009 | inactive: -0.017 | inactive: -0.046 | inactive: 0.013 | inactive: 0.07 | inactive: -0.041 | inactive: 0.066 | inactive: -0.003 | inactive: 0.119 | inactive: 0.033
SAP30BP (UniProt Q9UHR5) | inactive: -0.011 | inactive: -0.01 | inactive: 0.013 | inactive: -0.065 | inactive: 0.013 | inactive: 0.102 | inactive: 0.058 | inactive: -0.022 | inactive: 0.02 | inactive: 0.04
SART3, A0A499FI31 | inactive: -0.004 | inactive: 0.034 | inactive: -0.03 | inactive: 0.04 | inactive: 0.007 | inactive: -0.053 | inactive: 0.002 | inactive: -0.026 | inactive: -0.019 | inactive: -0.022
SDSL (UniProt Q96GA7) | inactive: -0.02 | inactive: 0.005 | inactive: -0.024 | inactive: -0.098 | inactive: 0.034 | inactive: 0.055 | inactive: 0.015 | inactive: 0.094 | inactive: -0.008 | inactive: 0.034
SEC22B (UniProt O75396) | inactive: -0.003 | inactive: -0.046 | inactive: 0.016 | inactive: -0.038 | inactive: -0.038 | inactive: 0.022 | inactive: -0.043 | inactive: -0.013 | inactive: -0.048 | inactive: -0.003
SECISBP2L (UniProt Q93073) | inactive: -0.034 | inactive: 0.036 | inactive: -0.08 | inactive: -0.084 | inactive: -0.044 | inactive: 0.002 | inactive: -0.016 | inactive: 0.047 | inactive: 0.01 | inactive: -0.038

Quoted from the listing:
SCAP (UniProt Q12770) – log2 fold change [9]: inactive: 0.119
SCRN2 (UniProt Q96FV2) – log2 fold change [9]: inactive: 0.024

An excerpt from above, limited to log2 fold change [2]:

| Target | log2 fold change [2] |
| --- | --- |
| SCIN (UniProt Q9Y6U3) | inactive: -0.013 |
| SEC24B isoform 3 (UniProt O95487) | inactive: -0.037 |

Reference: the supplement of paper PMC10849652
